# Experimental data from patent US20090264392A1, “TREATING EOSINOPHILIC ESOPHAGITIS” (Meritage Pharma, Inc., priority 2008, published 2009).
# For at least one compound, name, drawing or mass did not settle the structure.
# System: patients with greater than 15 eos/HPF and solid food dysphagia (EoE)
# Assay: Example 2: BRG therapy of eosinophilic esophagitis in adults
# Format: in vivo, human
# Settings: 8 patients who had previously received fluticasone
# Method: An oral gel combining budesonide with the mucosal adherent preparation Rincinol (the combination referred to as “BRG”) was compounded. Patients with abnormal Mayo dysphagia questionnaires underwent EGD with biopsies. 16 patients with greater than 15 eos/HPF and solid food dysphagia were enrolled in the study and treated with BRG. Patients were instructed to take BRG 3mg/10 cc BID. If patients noted marked improvement at one week, they were switched to once daily BRG for 6 weeks; otherwise they were continued on BID BRG for a total of 6 weeks. Dysphagia symptoms and BRG side effects over the last two weeks of treatment were assessed by personal interview. Symptoms were evaluated on a scale of dysphagia resolution: <25%, 25-49%, 50-74%, 75-99% or complete resolution. Those patients, who had previously utilized topical fluticasone for EoE, were asked to compare BRG vs topical fluticasone with respect to treatment effect and tolerance.
structure (smiles),measurement,value
C[C@@H]1C[C@H]2[C@@H]3C[C@H](F)C4=CC(=O)C=C[C@]4(C)[C@@]3(F)[C@@H](O)C[C@]2(C)[C@@]1(O)C(=O)SCF [fluticasone],patients who preferred fluticasone (treatment effect),none
